This test concerns the target full-length human KIF13B (wild type), C-terminal sfGFP-StrepII (human) (UniProt Q9NQT8). Put plainly: mass photometry; 5, 25 and 100 nM protein in HP buffer (90 mM HEPES, 10 mM PIPES, 50 mM K-acetate, 2 mM Mg-acetate, 1 mM EGTA, 10% glycerol, pH 7.0), room temperature; result told over the whole range; monomer to dimer; both purified.

Sequences of proteins named here, by UniProt entry; tags and fusion partners are left off.
UniProt Q9NQT8: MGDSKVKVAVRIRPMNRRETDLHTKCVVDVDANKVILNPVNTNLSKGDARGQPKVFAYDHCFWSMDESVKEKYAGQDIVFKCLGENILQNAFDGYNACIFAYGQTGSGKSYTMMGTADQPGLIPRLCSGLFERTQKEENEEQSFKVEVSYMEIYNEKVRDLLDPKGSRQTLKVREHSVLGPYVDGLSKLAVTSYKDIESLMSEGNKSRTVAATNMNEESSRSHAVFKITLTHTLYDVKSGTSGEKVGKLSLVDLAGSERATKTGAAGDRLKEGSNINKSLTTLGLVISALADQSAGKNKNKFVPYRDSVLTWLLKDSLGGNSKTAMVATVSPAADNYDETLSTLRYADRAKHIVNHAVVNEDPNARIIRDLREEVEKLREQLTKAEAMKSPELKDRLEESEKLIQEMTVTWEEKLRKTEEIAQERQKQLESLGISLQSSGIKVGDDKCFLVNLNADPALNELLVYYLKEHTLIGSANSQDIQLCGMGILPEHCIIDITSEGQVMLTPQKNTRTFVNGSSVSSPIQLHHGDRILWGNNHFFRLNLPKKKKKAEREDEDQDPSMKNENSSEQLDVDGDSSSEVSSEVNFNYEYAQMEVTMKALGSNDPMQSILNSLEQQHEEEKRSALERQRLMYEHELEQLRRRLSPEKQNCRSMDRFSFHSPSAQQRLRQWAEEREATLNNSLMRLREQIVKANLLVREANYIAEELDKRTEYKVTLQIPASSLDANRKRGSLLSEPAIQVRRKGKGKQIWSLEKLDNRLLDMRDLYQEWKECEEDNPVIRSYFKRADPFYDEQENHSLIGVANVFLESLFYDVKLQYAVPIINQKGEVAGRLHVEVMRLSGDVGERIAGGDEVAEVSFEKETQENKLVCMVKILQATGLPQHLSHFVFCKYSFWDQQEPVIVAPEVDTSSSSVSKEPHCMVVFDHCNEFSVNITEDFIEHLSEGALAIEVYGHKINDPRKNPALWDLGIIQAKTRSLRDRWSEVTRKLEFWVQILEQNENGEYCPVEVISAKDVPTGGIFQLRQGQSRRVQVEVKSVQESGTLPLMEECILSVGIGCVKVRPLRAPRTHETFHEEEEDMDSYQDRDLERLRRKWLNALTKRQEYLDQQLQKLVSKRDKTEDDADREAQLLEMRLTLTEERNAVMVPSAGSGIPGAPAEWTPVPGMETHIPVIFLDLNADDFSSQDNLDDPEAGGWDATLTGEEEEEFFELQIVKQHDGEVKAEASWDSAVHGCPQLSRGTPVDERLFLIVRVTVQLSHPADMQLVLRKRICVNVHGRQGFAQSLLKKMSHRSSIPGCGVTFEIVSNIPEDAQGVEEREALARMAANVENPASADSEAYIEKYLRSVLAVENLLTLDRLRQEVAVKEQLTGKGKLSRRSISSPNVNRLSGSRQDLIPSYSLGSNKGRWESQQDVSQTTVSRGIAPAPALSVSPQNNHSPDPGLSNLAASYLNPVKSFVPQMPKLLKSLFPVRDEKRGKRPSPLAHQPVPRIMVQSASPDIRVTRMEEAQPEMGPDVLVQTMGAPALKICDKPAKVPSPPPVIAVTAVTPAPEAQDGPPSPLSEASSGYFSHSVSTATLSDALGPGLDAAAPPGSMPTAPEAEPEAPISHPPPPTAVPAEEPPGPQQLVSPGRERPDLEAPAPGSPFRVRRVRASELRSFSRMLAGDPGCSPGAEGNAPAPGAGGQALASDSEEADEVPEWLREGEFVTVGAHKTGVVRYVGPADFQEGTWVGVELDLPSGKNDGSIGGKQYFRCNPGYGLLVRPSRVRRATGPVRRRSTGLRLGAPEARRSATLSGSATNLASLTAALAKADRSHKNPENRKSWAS

Results are given in words; binding and its absence hold for the method and conditions named. Some binding calls cover weakened binding; strength is not graded here.

Consider “full-length human KIF13B (wild type), C-terminal sfGFP-StrepII (from UniProt Q9NQT8 1-1826)”, for which the binding result is listed as “binds weakly”.

Values taken from PMC10404244.
